Consider 107 sequences from PubChem BioAssay AID1508600 (Functional Genomics Laboratory (NCATS/FGL), 2020).

About 3,700 (7%) of roughly 53,000 sequences were called active.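 The calls were made as follows: active = gene knockdowns whose robust z-score for IL-1 alpha signal is at least 2 or at most -2, so actives lie on both sides; inactive = the rest.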 The list shows a part of the results.

The nature of this test: Components of the Cytosolic LPS Sensing Pathway: Gene Identification via Genome-wide siRNA Screen.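 Also: robust z of the log signal after scaling to non-targeting control siRNA wells of the plate.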 Particulars: RAW264.7 macrophages, IL-1a HTRF, actives lie on both sides, screened at 100 nM (by protocol), cells primed 5 h with Pam3CSK4 first. In a few lines:
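Supernatant IL-1a by HTRF from RAW264.7 cells primed with Pam3CSK4 (5 hours) and transfected with LipidA (24 hour) after 48h siRNA knockdown at 100 nM; cell viability checked with CellTiter-Glo.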
For the sequence GGAAGCAAUGUGAGAAAUUTT against Tmem91, the z-score is active: 2.54. In the case of CCAAAGAGAUAUCCCUCCCTT against Olfr1350 it was inactive: -0.283; in that of GGGAAGCCUUACUUAUUGGTT against Vmn1r53, inactive: 1.25; in that of CCUGAUAGGCCUAAACCUUTT against Tmem147, inactive: -0.398.

As for CCAGAUCCGGACAAUUGACTT against Ppp4c, the z-score was inactive: 1.85. Take GCUCAGCUGUGGGUAAUACTT against Raver2: the z-score is active: -2.77. In the case of GGCAUGCAGGGUAUUGCGUTT against Chtf18 it was inactive: 0.157; in that of CCUCAUUGUACAAGUAUCUTT against Ntm, inactive: -1.17; in that of GGUUAUUCUGGCUAUGGGCTT against Taf15, active: -2.22. In the case of GGAAGAUGUUGAUGAUAUCTT against Snap47 it was inactive: 1.15; in that of GGAAGCUACGCUCAAUGAGTT against Dkk3, inactive: -0.796.

For the sequence CGACUCUUGCCUGUUCGUGTT against Adamtsl5, the z-score was active: -2.48. Then GGAGACUUAAAGGACAAAUTT against Jade1, with inactive: 0.769; and CCAAAUAUCACACACCCGATT against Fam187a, with inactive: 0.798. Then “CGCCUUAAACGAAGCUGCUTT against 1700034E13Rik”, with inactive: -1.28.

Turning to GGACAUCGGCUACAACACCTT against Fzd10, the z-score was active: -2.08. Then GGAAAGACACAGAUAAUAATT against Arvcf, with inactive: -1.28. As for GGUCACAGACAUUCCCGAATT against Atad2, the z-score is active: -2.89. In the case of GAUAAAAUCGGACUGAUAATT against Olfr1079 it was inactive: 0.837.

For GGAGACUCAGGAAAAAAUUTT against Olfr1424, the z-score was inactive: -0.408. In the case of CCGUAGACUCGGUGAAGCUTT against Plpbp it was inactive: -0.143; in that of “GGUAACGAUCCACUUAAAGTT against 0610040J01Rik”, inactive: 0.264. Then CCUACGUGCACAUUUGUUUTT against Erap1, with inactive: 0.415; and GGUGAGCAAGUCGAAGAGATT against Igsf3, with inactive: 0.849; and GGACUUGGAAAAUAAGGAATT against Usp38, with inactive: -0.159. Then CCUUGCACGACAUUUUACUTT against Idnk, with inactive: 0.313; and GCCAAACACUUUAUGCGACTT against Ndst4, with inactive: 0.711. As for GGACUUUAAUCACAGACAATT against Fem1b, the z-score was inactive: -1.73. In the case of GGAACCACUGCUUUCAAAATT against Cd36 it was inactive: 0.83.

Regarding GGCACAGAUACAUCAAAUATT against Spag9, the z-score is inactive: 0.777. For GGUUGUGUUGCUAAUCUUUTT against Tbpl2, the z-score was inactive: -0.914.

Turning to GGCAGCUAAGAAUGGAGCATT against Gde1, the z-score is inactive: 1.29. As to GGAAAUCUUGGCAGUUUCCTT against Ercc8, the z-score is inactive: 0.0594.

In the case of GGCGAUUUUGUGACUUCGUTT against Ptgr2, the z-score was inactive: -0.0904.

Turning to GGAUAUUUGUGUUCCUAAGTT against Vmn1r193, the z-score was inactive: -0.683. Turning to GGUUCCUUCUUCAUCUUCCTT against Cysrt1, the z-score was inactive: -1.07. As to GCAGUAAAUGUCCCAUCCGTT against Caskin1, the z-score is inactive: -1.28. In the case of GGAUCCUGUCCACAAGCACTT against Astn1 it was inactive: 0.519; in that of “CCCUGAUUGCAUCCUGUUATT against A430093F15Rik”, inactive: 0.249.

In the case of GGGCCAACCAACGAAAUGUTT against Uba1y, the z-score was inactive: 0.667.

For the sequence CCAGUCAACAAGAAUCAGATT against Rptn, the z-score was inactive: -0.105. In the case of CGAAACCAACAGUUAGAAGTT against Cby1 it was inactive: 0.71. On to GGUAGCUCUGAGACAAUUCTT against Pkhd1l1, for which the z-score was inactive: 0.857.

With GGCAAUGUAUUAAUUACAGTT against Otc, the z-score was inactive: 0.219. In the case of GCCCGACAUAGAAUUCACCTT against Ncor2 it was inactive: 0.563; in that of GGAAACAAGGAAGCAAUUATT against Psmd1, active: -3.01; in that of “GGACGAGGAAAAGUCAUCATT against 4930579C12Rik”, inactive: -0.0701. In the case of CCUGAUGUUUACUAUAAACTT against Atp6v1g3 it was inactive: -0.679.

Turning to GGUGGAAUUGGAAUCACCUTT against Get1, the z-score was inactive: -0.94. In the case of GGAAGUGGAAGUUCUGAAGTT against Tsc22d1 it was inactive: -0.886; in that of UUGUGACCAAUUUCUGAAUTT against Pgbd1, inactive: -0.594; in that of GCCAGUCUGGAGUUGCUUUTT against Timm23, inactive: 1.04.

GCUUUGUAACCGUCCUCCATT against Ftl1: the z-score was inactive: 0.342. Turning to GGCCAGUUCCUUCUAGACUTT against Abhd1, the z-score was inactive: -0.179. With GGGCUUCCCUUACAAAAGGTT against Padi3, the z-score was inactive: 0.0845. As to GGGAAAUCACCAUAUUUCCTT against Atp10b, the z-score was inactive: 0.0262. Then CCGUGUUGUCUGAAAAAUATT against Fam98c, with inactive: -0.331; and GGAACUUCUGAACAUCAGCTT against Prss28, with inactive: -0.493. Then GGUCUAUGAGAUGUUUUCUTT against Cyp2a4, with active: 2.78; and “GGUUCUCAUGUUGUUGGCUTT against 1600014C10Rik”, with inactive: -1.99.

For the sequence GGGUAGCUACGAAGAGGAATT against Ros1, the z-score is inactive: 1.72. Then GUUAAAGACUAACCUGUUATT against Smco1, with inactive: -1.22; and GGACUUUAGAGUUCGCCAUTT against Plekhg6, with inactive: -0.341.

GCAGAGAAGGCAAUAAACUTT against Glrx3: the z-score was inactive: 0.129. In the case of GGAGUGAAGACUUUGAGAATT against Kcnn2 it was inactive: -0.631; in that of GGUGAAGUCCAGUAAUAAGTT against Nfrkb, inactive: -1.98; in that of GGGACUCCUCAAUGCUUAUTT against Nxf3, inactive: -1.33. Then CGAGAGUAGCUUGUUGCUGTT against Rhobtb3, with inactive: 0.359; and GGUUCAGAGAACCUCUCACTT against Slc26a10, with inactive: 0.479; and GCACAACAUUAAAUGCAGATT against Hspa4, with inactive: 0.237. In the case of GGACAGAUACUUUUGAUGATT against Zfp386 it was inactive: 1.12; in that of GCAAAUUUGCCAAGUCAAATT against Rpap2, inactive: 0.0345.

Regarding GGAAUUUAUGGAUAGAGGATT against Zfp768, the z-score was inactive: -0.178.

Consider GGCUUUCACCUUAAUUGAUTT against Fntb, for which the z-score is inactive: -0.296. In the case of GGAUGCAUGUCAUGUUUACTT against Xpnpep3 it was inactive: 1.3. In the case of GGAUGCAUCUAGCUUCACATT against BC016548 it was inactive: 0.406; in that of GGACUUUUAUUAUUUCCCGTT against Mpped1, inactive: 0.245. Then GGGAAAUCAAGGAACUUAATT against Lrrfip1, with inactive: 0.357; and GGCAAUGAGAUCAGUCCACTT against Gzmc, with inactive: 0.431; and GGUCUUUCAAUAAAGAGAATT against Supt5, with inactive: -1.75.

Take GCAUAGCCACAAGGUUAAUTT against Nat8f4: the z-score was inactive: 0.35. Turning to CGGGUCGUCUCCUUACACATT against Prdm8, the z-score is inactive: -0.381. In the case of GGAAUUGAAUGGAAAGUGUTT against Ggta1, the z-score was inactive: 0.178. Then GGGUGACUACAAAUACCUGTT against Susd6, with inactive: -1.18; and GGAUCAGAAGAAGUUUAUUTT against Parn, with inactive: 1.52; and GCCAUUUGUUUAUGGAGGCTT against Spint2, with inactive: -1.46.

GGAACUUGACAAAGUCUACTT against Panx1: the z-score was inactive: 1.2. In the case of GGUUUCAGACUCCAUGAGATT against Gyg, the z-score is inactive: 0.402. As to GCUUUACUCCAGAUGGAUCTT against Chaf1b, the z-score was active: 3.23. With GGUCAUUUGAUCUUCUGGUTT against Cacybp, the z-score is inactive: -0.256. In the case of GGGCGACCUUUGAUUGACATT against Etv5 it was inactive: -0.0312. Then GCUGAUCGUGCAGAUUUUATT against Chn2, with inactive: 0.236; and GGAAAUAAACAAGUCCCACTT against Urm1, with inactive: 0.465; and GCUAAUACGAUCACUAGCUTT against Gdf6, with inactive: 0.511.

Consider GGUUCUACGAGUAAAAAGCTT against Xrcc6, for which the z-score is inactive: -0.774. Then CGUGAUCGAUGGGAAGAAUTT against Tppp, with inactive: 1.52; and GGGUGUUCCUUAUACAGUUTT against Zfp524, with inactive: 0.447.

For the sequence GCAUGGUUUACAAGGAAUGTT against Atxn1, the z-score is inactive: 1.2.

For the sequence GCAAUGGUUGAAGAAAUUUTT against Tnip3, the z-score is inactive: 0.69. Then GCUGAAUUCUCCAACCAACTT against Rgcc, with inactive: -0.0341; and GCAGGGACUAACUUUCACCTT against Wrap73, with inactive: -0.459; and GGAAUUUUCUCAUGAUCUUTT against Krtap3-3, with inactive: 0.813. In the case of GCCCUAGGUGUAAUGAUAGTT against Amd1 it was inactive: 0.574; in that of GGCUCAGUGUGCCAAACUGTT against Krt84, inactive: -1.19.

GGCUUCCAAGCCUAAAGCUTT against H1f3: the z-score is inactive: -0.266. In the case of GUUCCUGCUGAUCAAGGACTT against Nsmce3 it was inactive: 0.2; in that of CCGAUGUGCUCACUAUCACTT against Mrps35, inactive: -0.0351.
